According to the supplement of paper PMC6411743:
± gives the standard deviation of the averaged measurements. This is a selection; strong and weak results do not stand in their true shares.

Chains of the proteins cited; added tags and fusions are not shown. Lines headed by an entry give the natural chain unless they say otherwise; changes in a name come on top.
UniProt Q8TCS8: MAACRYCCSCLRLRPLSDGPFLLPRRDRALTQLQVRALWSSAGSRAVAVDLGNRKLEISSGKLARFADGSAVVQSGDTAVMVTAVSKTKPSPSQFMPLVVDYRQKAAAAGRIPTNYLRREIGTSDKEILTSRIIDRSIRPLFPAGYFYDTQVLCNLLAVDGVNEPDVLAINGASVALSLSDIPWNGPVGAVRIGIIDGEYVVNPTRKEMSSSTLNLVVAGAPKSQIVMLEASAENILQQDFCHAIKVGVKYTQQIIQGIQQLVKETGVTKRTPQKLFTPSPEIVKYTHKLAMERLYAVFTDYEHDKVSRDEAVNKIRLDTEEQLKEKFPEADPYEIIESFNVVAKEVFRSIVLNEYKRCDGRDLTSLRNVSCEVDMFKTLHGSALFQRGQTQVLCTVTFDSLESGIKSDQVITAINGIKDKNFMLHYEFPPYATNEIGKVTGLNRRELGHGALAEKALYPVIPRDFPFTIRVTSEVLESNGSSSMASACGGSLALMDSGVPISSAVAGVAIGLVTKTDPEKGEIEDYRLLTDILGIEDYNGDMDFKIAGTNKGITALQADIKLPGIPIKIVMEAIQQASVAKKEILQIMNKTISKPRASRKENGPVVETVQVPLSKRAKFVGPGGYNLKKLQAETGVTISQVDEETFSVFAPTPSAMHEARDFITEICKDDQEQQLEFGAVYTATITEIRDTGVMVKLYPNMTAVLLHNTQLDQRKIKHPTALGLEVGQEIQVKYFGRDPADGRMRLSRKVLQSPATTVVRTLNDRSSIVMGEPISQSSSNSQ
UniProt Q92619: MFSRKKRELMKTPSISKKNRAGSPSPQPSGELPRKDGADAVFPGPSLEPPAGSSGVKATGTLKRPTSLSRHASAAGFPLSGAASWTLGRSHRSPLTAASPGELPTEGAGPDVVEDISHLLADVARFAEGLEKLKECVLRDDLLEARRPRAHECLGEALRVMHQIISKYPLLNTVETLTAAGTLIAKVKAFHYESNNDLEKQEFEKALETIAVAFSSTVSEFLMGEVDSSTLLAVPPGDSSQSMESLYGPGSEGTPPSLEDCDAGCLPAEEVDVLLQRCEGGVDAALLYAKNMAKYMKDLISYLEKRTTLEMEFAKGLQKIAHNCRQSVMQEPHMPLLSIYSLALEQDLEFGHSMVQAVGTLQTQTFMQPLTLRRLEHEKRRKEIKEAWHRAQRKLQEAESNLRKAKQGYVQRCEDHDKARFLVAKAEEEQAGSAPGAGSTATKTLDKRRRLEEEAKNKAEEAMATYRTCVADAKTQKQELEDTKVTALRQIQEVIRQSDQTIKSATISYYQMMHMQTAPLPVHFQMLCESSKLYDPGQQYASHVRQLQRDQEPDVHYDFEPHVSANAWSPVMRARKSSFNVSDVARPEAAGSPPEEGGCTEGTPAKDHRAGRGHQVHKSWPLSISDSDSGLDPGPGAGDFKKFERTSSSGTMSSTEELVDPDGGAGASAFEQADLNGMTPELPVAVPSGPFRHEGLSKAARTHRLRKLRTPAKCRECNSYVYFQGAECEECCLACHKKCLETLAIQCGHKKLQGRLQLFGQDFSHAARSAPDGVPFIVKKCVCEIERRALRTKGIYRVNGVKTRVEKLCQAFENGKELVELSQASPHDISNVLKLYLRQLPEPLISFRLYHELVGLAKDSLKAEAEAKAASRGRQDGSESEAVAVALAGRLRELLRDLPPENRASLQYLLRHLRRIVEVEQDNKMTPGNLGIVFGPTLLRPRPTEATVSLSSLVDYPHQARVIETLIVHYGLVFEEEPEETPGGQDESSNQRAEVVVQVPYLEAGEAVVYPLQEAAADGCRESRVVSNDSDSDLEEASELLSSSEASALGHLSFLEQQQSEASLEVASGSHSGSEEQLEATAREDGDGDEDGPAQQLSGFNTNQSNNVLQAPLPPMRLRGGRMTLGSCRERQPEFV
UniProt Q92784, whole entry: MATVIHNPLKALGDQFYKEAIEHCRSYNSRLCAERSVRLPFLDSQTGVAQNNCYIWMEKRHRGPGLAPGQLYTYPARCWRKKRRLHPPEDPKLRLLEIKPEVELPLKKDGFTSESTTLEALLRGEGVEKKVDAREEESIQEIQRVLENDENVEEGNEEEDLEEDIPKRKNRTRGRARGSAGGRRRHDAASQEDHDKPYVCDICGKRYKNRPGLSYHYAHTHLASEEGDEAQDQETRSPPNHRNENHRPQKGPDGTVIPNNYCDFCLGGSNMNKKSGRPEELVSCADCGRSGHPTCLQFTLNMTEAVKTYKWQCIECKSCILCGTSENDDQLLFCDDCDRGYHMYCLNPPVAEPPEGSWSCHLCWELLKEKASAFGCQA
UniProt Q8NEF9: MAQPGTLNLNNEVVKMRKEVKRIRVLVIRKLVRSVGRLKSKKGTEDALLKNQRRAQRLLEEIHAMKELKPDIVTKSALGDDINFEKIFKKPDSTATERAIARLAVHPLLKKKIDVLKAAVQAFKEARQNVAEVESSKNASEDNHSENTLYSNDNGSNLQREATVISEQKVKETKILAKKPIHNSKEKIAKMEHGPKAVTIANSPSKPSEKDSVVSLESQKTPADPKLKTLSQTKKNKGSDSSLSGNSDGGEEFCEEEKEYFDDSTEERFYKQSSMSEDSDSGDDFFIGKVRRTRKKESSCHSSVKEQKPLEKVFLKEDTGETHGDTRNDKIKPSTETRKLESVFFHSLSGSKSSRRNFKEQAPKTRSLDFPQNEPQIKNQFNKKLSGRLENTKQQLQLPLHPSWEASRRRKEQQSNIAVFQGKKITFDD
UniProt Q8WUM4: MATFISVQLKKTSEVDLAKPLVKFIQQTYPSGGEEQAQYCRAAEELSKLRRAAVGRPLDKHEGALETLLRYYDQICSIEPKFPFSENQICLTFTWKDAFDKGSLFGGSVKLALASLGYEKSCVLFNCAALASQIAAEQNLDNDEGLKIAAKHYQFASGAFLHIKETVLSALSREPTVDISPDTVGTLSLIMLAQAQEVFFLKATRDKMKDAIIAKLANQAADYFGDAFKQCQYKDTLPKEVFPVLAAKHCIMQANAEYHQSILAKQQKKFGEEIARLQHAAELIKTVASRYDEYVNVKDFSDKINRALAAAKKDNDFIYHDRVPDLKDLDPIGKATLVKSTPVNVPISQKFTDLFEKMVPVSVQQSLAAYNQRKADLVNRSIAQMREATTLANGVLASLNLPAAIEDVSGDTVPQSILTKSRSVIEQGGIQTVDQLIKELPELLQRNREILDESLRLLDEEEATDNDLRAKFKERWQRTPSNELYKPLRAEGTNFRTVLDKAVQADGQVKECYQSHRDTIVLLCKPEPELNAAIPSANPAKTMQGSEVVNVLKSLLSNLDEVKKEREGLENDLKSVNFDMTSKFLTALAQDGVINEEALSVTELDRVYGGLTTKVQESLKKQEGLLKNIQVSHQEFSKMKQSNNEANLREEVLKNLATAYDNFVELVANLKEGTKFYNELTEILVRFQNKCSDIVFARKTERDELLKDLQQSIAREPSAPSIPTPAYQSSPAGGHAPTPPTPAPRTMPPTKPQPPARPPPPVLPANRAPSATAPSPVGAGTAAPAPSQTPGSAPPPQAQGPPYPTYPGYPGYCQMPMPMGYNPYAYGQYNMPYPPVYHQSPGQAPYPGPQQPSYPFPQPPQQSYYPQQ
UniProt Q8NCN4: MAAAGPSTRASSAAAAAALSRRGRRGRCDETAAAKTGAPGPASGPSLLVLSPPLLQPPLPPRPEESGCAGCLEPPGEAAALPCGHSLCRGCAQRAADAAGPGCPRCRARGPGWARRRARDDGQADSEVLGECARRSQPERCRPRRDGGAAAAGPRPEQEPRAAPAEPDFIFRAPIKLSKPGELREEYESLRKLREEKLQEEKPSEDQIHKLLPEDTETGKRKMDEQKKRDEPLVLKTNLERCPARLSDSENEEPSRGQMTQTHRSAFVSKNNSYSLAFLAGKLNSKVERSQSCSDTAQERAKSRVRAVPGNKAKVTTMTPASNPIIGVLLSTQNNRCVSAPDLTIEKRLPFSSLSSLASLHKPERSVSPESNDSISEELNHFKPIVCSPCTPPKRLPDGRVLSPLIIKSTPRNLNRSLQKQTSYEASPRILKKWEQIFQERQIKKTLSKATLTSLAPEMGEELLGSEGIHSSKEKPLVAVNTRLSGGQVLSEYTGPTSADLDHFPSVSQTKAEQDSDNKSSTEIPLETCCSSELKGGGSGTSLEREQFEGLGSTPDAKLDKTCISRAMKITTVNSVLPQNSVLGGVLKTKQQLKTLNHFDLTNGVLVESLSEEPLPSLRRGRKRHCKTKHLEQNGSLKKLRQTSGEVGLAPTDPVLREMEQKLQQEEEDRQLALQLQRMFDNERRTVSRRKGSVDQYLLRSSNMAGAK
UniProt Q92506: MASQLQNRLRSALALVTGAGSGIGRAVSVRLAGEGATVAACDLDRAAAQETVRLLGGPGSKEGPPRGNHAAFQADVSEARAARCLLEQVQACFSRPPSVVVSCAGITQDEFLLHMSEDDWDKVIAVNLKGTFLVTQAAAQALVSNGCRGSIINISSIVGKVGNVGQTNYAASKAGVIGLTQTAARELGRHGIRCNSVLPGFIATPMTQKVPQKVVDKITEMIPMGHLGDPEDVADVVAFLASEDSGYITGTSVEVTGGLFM
UniProt Q8NHP8: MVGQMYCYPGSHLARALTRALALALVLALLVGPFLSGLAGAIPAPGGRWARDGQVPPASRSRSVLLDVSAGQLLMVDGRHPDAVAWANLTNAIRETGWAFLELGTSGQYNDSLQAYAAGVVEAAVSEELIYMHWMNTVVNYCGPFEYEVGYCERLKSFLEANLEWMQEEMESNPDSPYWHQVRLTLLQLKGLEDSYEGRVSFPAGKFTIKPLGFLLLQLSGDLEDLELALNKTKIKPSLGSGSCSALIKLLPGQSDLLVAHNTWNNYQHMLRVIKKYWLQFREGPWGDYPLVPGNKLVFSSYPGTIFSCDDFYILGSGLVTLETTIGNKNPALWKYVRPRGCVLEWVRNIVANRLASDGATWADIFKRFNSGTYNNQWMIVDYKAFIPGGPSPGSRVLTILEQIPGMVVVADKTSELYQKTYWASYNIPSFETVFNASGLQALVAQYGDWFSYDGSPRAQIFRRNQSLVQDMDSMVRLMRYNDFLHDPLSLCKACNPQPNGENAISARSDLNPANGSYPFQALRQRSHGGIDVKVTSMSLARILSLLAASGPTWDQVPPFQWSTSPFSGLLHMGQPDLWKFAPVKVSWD
UniProt Q8TDQ7: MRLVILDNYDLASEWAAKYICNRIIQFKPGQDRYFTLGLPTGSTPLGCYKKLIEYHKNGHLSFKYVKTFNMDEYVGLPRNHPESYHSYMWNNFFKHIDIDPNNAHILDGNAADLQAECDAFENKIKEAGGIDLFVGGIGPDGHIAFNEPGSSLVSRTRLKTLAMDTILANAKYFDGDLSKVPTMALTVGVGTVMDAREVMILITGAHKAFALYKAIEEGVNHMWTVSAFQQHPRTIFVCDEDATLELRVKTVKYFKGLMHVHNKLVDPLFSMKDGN
UniProt Q92759: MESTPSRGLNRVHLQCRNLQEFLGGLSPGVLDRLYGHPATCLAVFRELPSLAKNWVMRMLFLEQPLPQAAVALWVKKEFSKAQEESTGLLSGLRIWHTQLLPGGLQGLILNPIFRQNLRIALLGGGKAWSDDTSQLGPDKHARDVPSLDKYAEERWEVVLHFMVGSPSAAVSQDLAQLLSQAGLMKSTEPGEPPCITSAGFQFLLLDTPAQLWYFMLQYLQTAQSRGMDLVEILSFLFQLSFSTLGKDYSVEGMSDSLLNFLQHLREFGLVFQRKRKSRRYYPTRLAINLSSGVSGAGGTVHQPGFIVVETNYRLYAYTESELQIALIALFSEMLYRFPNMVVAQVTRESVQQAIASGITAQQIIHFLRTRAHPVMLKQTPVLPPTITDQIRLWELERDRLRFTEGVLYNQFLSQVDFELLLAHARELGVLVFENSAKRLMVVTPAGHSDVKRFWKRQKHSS
UniProt Q8WV93: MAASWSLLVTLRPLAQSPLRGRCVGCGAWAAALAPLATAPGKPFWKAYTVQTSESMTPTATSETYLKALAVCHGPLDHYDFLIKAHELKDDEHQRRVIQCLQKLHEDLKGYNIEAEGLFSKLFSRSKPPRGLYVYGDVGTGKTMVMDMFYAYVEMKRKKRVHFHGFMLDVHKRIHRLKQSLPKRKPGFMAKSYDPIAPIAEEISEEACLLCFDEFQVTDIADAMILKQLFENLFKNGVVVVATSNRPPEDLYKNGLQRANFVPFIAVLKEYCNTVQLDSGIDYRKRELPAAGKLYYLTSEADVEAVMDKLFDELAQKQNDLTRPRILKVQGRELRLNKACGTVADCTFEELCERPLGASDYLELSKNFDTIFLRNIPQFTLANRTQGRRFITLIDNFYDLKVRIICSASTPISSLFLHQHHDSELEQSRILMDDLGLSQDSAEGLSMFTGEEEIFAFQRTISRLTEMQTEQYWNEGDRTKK

compound: Nc1ncnc2c1ncn2[C@@H]1O[C@H](COP(=O)(O)OP(=O)(O)NP(=O)(O)O)[C@@H](O)[C@H]1O [adenylyl imidodiphosphate]; assay: NP40-soluble protein abundance relative to vehicle (solubility fold change) (ratio); higher = more soluble protein in presence of AMP-PNP; details: concentration: 6mM
Summary of the method: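 Values are fold changes against the detergent-processed vehicle, based on vsn-normalised intensities. Jurkat crude lysate was treated at eight concentrations from 0.1 to 10 mM (10 min at room temperature, then 3 min at 37 °C), solubilised with 0.8% NP40 and benzonase, ultracentrifuged and analysed by TMT-labelled LC-MS/MS over three independent experiments.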

How did the NP40-soluble protein abundance turn out when UniProt Q8TCT7 and related entries was run?
The NP40-soluble protein abundance was 1.03 ± 0.046.

CORO2A (UniProt Q92828) was tested. Which NP40-soluble protein abundance did it give?
The NP40-soluble protein abundance was 1.02 ± 0.025.

Which NP40-soluble protein abundance does the source give for UniProt Q8NDI1-2|Q8NDI1-3 here?
Its NP40-soluble protein abundance is 0.971 ± 0.013.

With PNPT1 (UniProt Q8TCS8) as the target, how does the NP40-soluble protein abundance read?
Its NP40-soluble protein abundance is 0.954 ± 0.019.

How did the NP40-soluble protein abundance turn out when UniProt Q92734 and related entries was run?
Its NP40-soluble protein abundance is 1.01 ± 0.02.

Which NP40-soluble protein abundance does the source give for ABHD11 (UniProt Q8NFV4) here?
The NP40-soluble protein abundance was 0.995 ± 0.028.

Which NP40-soluble protein abundance does the source give for UniProt Q92619 here?
Its NP40-soluble protein abundance is 1.06 ± 0.025.

UniProt Q92784 and related entries was tested. Which NP40-soluble protein abundance did it give?
The NP40-soluble protein abundance was 1.02 ± 0.03.

With SRFBP1 (UniProt Q8NEF9) as the target, how does the NP40-soluble protein abundance read?
The NP40-soluble protein abundance was 1.037 ± 0.0045.

Which NP40-soluble protein abundance does the source give for PDCD6IP (UniProt Q8WUM4) here?
Its NP40-soluble protein abundance is 1.02 ± 0.014.

UniProt Q8WZA9 was tested. Which NP40-soluble protein abundance did it give?
Its NP40-soluble protein abundance is 0.988 ± 0.028.

With UniProt Q92859 and related entries as the target, how does the NP40-soluble protein abundance read?
Its NP40-soluble protein abundance is 0.985 ± 0.045.

How did the NP40-soluble protein abundance turn out when MOSPD2 (UniProt Q8NHP6) was run?
The NP40-soluble protein abundance was 0.932 ± 0.011.

With UniProt Q8NDX5 and related entries as the target, how does the NP40-soluble protein abundance read?
Its NP40-soluble protein abundance is 1.047 ± 0.0044.

How did the NP40-soluble protein abundance turn out when RNF169 (UniProt Q8NCN4) was run?
Its NP40-soluble protein abundance is 1.11 ± 0.054.

How did the NP40-soluble protein abundance turn out when PIEZO1 (UniProt Q92508) was run?
The NP40-soluble protein abundance was 0.998 ± 0.018.

UniProt Q8TCC3 and related entries was tested. Which NP40-soluble protein abundance did it give?
The NP40-soluble protein abundance was 1.02 ± 0.11.

How did the NP40-soluble protein abundance turn out when UniProt Q92538 and related entries was run?
Its NP40-soluble protein abundance is 0.91 ± 0.032.

Which NP40-soluble protein abundance does the source give for UniProt Q8TEB1 and related entries here?
Its NP40-soluble protein abundance is 0.967 ± 0.024.

For UniProt Q8TF05 and related entries, which NP40-soluble protein abundance is on record?
Its NP40-soluble protein abundance is 0.91 ± 0.047.

How did the NP40-soluble protein abundance turn out when ZNRF2 (UniProt Q8NHG8) was run?
The NP40-soluble protein abundance was 1.02 ± 0.017.

ENGASE (UniProt Q8NFI3) was tested. Which NP40-soluble protein abundance did it give?
The NP40-soluble protein abundance was 0.963 ± 0.028.

For CXorf38 (UniProt Q8TB03), which NP40-soluble protein abundance is on record?
The NP40-soluble protein abundance was 0.997 ± 0.023.

Which NP40-soluble protein abundance does the source give for NANP (UniProt Q8TBE9) here?
Its NP40-soluble protein abundance is 1.01 ± 0.054.

Which NP40-soluble protein abundance does the source give for GPT2 (UniProt Q8TD30) here?
Its NP40-soluble protein abundance is 0.937 ± 0.046.

PPIL4 (UniProt Q8WUA2) was tested. Which NP40-soluble protein abundance did it give?
The NP40-soluble protein abundance was 1.01 ± 0.039.

With HSD17B8 (UniProt Q92506) as the target, how does the NP40-soluble protein abundance read?
Its NP40-soluble protein abundance is 1.06 ± 0.019.

RABGGTA (UniProt Q92696) was tested. Which NP40-soluble protein abundance did it give?
The NP40-soluble protein abundance was 0.929 ± 0.022.

How did the NP40-soluble protein abundance turn out when PLBD2 (UniProt Q8NHP8) was run?
Its NP40-soluble protein abundance is 1.01 ± 0.051.

UniProt Q8TDQ7 and related entries was tested. Which NP40-soluble protein abundance did it give?
The NP40-soluble protein abundance was 0.984 ± 0.03.

How did the NP40-soluble protein abundance turn out when UniProt Q8TEQ0 and related entries was run?
Its NP40-soluble protein abundance is 0.98 ± 0.054.

Which NP40-soluble protein abundance does the source give for UniProt Q92796-3 here?
The NP40-soluble protein abundance was 1.03 ± 0.044.

For THAP4 (UniProt Q8WY91), which NP40-soluble protein abundance is on record?
Its NP40-soluble protein abundance is 0.937 ± 0.017.

Which NP40-soluble protein abundance does the source give for UniProt Q8ND04 and related entries here?
Its NP40-soluble protein abundance is 1.02 ± 0.026.

How did the NP40-soluble protein abundance turn out when GTF2H4 (UniProt Q92759) was run?
The NP40-soluble protein abundance was 1 ± 0.02.

Which NP40-soluble protein abundance does the source give for SNIP1 (UniProt Q8TAD8) here?
The NP40-soluble protein abundance was 0.9983 ± 0.0077.

For RNF214 (UniProt Q8ND24), which NP40-soluble protein abundance is on record?
Its NP40-soluble protein abundance is 1.02 ± 0.016.

For MITD1 (UniProt Q8WV92), which NP40-soluble protein abundance is on record?
The NP40-soluble protein abundance was 1.066 ± 0.0081.

For UniProt Q8WXE0 and related entries, which NP40-soluble protein abundance is on record?
The NP40-soluble protein abundance was 0.986 ± 0.035.

How did the NP40-soluble protein abundance turn out when UniProt Q8WV93 was run?
Its NP40-soluble protein abundance is 1.05 ± 0.17.
